Assay results published in PubChem BioAssay AID1347075 (National Center for Advancing Translational Sciences (NCATS), 2019).
Values joined by “and” are separate entries in the source; they are usually repeats but may differ in a detail not shown here. Identical values can stand only once. The whole screen tested about 400,000 compounds, of which about 5,500 (1.4%) were called active. The shares of active, inactive and inconclusive entries below differ from those in the screen. Calls follow the shape of the dose curve; as a rule, active = well fitted cell-killing curve with a large enough effect; inconclusive = small, poorly fitted or top-dose-only effect, or effect the other way; inactive = flat fitted curve, though single readings scatter. Potencies beside an inconclusive call are fits to weak or partial responses and may not hold up.

Assay: qHTS assay for MDR1-selective chemotherapeutics: Primary screen using the parental adenocarcinoma cell KB-3-1; also: nearly all actives have a fitted effect of over 60% in size
Conditions: KB-3-1 viability, CellTiter-Glo ATP luminescence, 72 h; activity change, negative = cytotoxic: at 46.1 µM (top of the series)
Outline: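 Parental KB-3-1 adenocarcinoma cells in phenol-red-free DMEM with 10% FBS were pin-treated with compounds at several concentrations, incubated 72 h at 37 °C, and viability read by CellTiter-Glo luminescence; concentration-effect curves were fitted after normalization.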
% is scaled to controls: 0 for no effect and ±100 for the full control effect; potency is read from the fitted curve at half-maximal effect.

Compound	Potency	activity change, negative = cytotoxic
c1cc2c3c(cccc3c1)CC2	inconclusive: 16.4 µM [rising, single point]	
C[C@]12CCC3C(CC[C@H]4C[C@@H](O)CC[C@]34C)[C@H]1C=CC2=O (stereo partly specified)	inconclusive: 29.1 µM [cytotoxic, partial curve, poor fit]	
CCOC(=O)[C@]12Cc3ccccc3[C@H]1N(C(C)C)C(=O)c1ccccc12	active: 20.6 µM	
CCOC(=O)[C@]12Cc3ccccc3[C@H]1N(CCC(=O)OC)C(=O)c1ccccc12	active: 5.17 µM	
Cc1ccc(-c2cc(-c3ccc(C)cc3)[n+](C)o2)cc1	active: 2.91 µM	
CCOC(=O)[C@]12Cc3cc(C)ccc3[C@H]1N(Cc1ccccc1)C(=O)c1ccccc12	inconclusive: 18.4 µM [cytotoxic, single point] and inconclusive: 11.6 µM [cytotoxic, partial curve, poor fit]	
CCCCCCn1c(=O)c(C(=O)Nc2ncccc2C)c(O)c2ccccc21	inconclusive: 5.17 µM [cytotoxic, full curve]	
Cc1ccc(C(=O)Nc2ccccc2)cc1S(=O)(=O)N1CCCC1	inconclusive: 29.1 µM [cytotoxic, single point]	
CC1(C)Cc2c(sc3c2C(=O)NC(c2cccnc2)N3)CO1 (stereo unspecified)	inconclusive: 23.1 µM [rising, partial curve, poor fit]	
CSCCC(c1nnnn1-c1c(C)cccc1C)N1CCC2(CC1)C(=O)NCN2c1ccccc1 (stereo unspecified)	inconclusive: 29.1 µM [cytotoxic, single point]	
COC(=O)C1=C(c2ccc(F)cc2F)C[C@@H]2CC[C@H]1N2C(=O)NCCOc1ccccc1Cl	inconclusive: 20.6 µM [cytotoxic, single point]	
COC(=O)C1=C(c2ccc3ccccc3c2)C[C@@H]2CC[C@H]1N2C		inactive: 0.28%
CCC1(c2ccc(N)cc2)CCC(=O)NC1=O (stereo unspecified)		inactive: 0%
Cc1nn(Cc2ccccc2)c(Cl)c1C(=O)OCC(=O)Nc1cccc2ccccc12	inconclusive: 25.9 µM [cytotoxic, single point]	
CC(C)(C)C(=O)O[C@H]1CC[C@@]2(C)C(=CC(=O)C3C2CC[C@]2(C)C(=O)[C@@H](F)CC32)C1 (stereo partly specified)	inconclusive: 20.6 µM [cytotoxic, single point]	
C[C@]12CCC3C(CC[C@@H]4CC(=O)CC[C@]34C)C1CC[C@@H]2O (stereo partly specified)		inactive: 7.05%
COc1ccccc1NC(=O)COC(=O)c1cn(C)c2ccccc12		inactive: -13.2%
O=C(Nc1ccc(Cl)cc1)Nc1nccs1	active: 4.61 µM	
O=c1c2ccccc2nc(CSc2ncnc3nc[nH]c23)n1-c1ccccc1	inconclusive: 29.1 µM [cytotoxic, single point]	
COc1ccccc1N1C(=O)NC(=O)C2(Cc3cc(C)ccc3N(C)C2)C1=O (stereo unspecified)		inactive: 13.2%
CCOC(=O)C1(c2ccccc2)CCN(CCC(=O)Nc2ccc(F)cc2)CC1	inconclusive: 23.1 µM [cytotoxic, single point]	
O=C(Nc1ccccc1)N1CC2CC(C1)c1cccc(=O)n1C2 (stereo unspecified)	inconclusive: 20.6 µM [cytotoxic, partial curve, poor fit]	

Compound	Potency	activity change, negative = cytotoxic
CCOC(=O)[C@]12Cc3cc(C)ccc3[C@H]1N(C1CCCCC1)C(=O)c1ccccc12	active: 1.64 µM	
COc1ccc(Cn2c(O)c(/C=N/NC(=O)c3ccccc3O)c(=O)[nH]c2=O)cc1	inconclusive: 13 µM [rising, partial curve, poor fit]	
CN1C(=O)CC(c2ccccc2)Nc2ccccc21 (stereo unspecified)	inconclusive: 1.3 µM [cytotoxic, full curve]	
CN1C(=O)C(=Cc2ccccc2Oc2ccc(Cl)cc2)C(=O)N(C)C1=O	inconclusive: 20.6 µM [cytotoxic, single point]	
CCC1CN1P(=S)(N1CC1CC)N1CC1CC (stereo unspecified)		inactive: 0%
COC(=O)C1=C(c2ccc(Cl)c(C(F)(F)F)c2)C[C@@H]2CC[C@H]1N2C(=O)NCCCOC(C)C		inactive: -5.6%
O=C1NC(=O)N(Cc2ccccc2)C(=O)/C1=C/C=C/c1ccco1	active: 14.6 µM	
C/C(=N\N1CCCCC1)c1c(O)[nH]c(=O)[nH]c1=O	inconclusive: 16.4 µM [cytotoxic, single point]	
Cc1ccc(S(=O)(=O)N[C@@H](CCCCN)C(=O)CCl)cc1		inactive: 0%
CC1(CCO)C(=O)NC(=S)NC1=O		inactive: 18.1%
COC(=O)C1=C(c2ccc(F)cc2OCc2ccccc2)C[C@@H]2CC[C@H]1N2C(=O)NCc1ccccc1	inconclusive: 29.1 µM [cytotoxic, single point]	
Nc1c(C(=O)Nc2ccc(F)c(Cl)c2)sc2nc3c(cc12)N1CCC3CC1		inconclusive: -24.2%
COc1ccc(Oc2cc(NC(=O)c3nn(C)cc3[N+](=O)[O-])cc([N+](=O)[O-])c2)cc1	active: 20.6 µM	
Cc1ccc(N2C(=O)NC(=O)/C(=C/c3ccoc3)C2=O)cc1	inconclusive: 16.4 µM [rising, partial curve, poor fit]	
CN(C)c1ccc(/C=C/C=C/c2sc3ccccc3[n+]2C)cc1	active: 10.3 µM	
CCc1ccc(OCC(=O)N2CCN(Cc3ccc4c(c3)OCO4)CC2)cc1		inactive: 0.704%
O=C(/C=C/c1ccc2c(c1)OCO2)c1c(O)n(CCC2=CCCCC2)c(=O)[nH]c1=O	inconclusive: 18.4 µM [cytotoxic, single point]	
COc1cccc(NP(=O)(Oc2ccc(Cl)cc2)Oc2ccc(Cl)cc2)c1	inconclusive: 20.6 µM [cytotoxic, partial curve, poor fit]	
CCOc1ccc(-c2cc(C)[n+](CCN(CC)CC)c(-c3ccc(OCC)cc3)c2)cc1	inconclusive: 32.6 µM [cytotoxic, partial curve, poor fit]	
CCN(CC)P(=O)(NC(=O)c1cccn1C)N(CC)CC	inconclusive: 29.1 µM [rising, single point]	
CC(C)CCn1c(=O)c(C(=O)NCc2ccco2)c(O)c2ccccc21	inconclusive: 23.1 µM [cytotoxic, single point]	
CCC1(CCC(C)C)C(=O)NC(=S)NC1=O	inconclusive: 32.6 µM [rising, single point]	

Compound	Potency	activity change, negative = cytotoxic
COc1ccc(C2=NCC(=S)Nc3ccc(Cl)cc32)cc1OC	inconclusive: 29.1 µM [rising, single point]	
COC(=O)[C@@H]1N=C(c2ccc(OC)cc2)O[C@]12C(=O)N(Cc1ccc(OC)cc1)c1ccccc12	inconclusive: 23.1 µM [cytotoxic, single point]	
COc1ccc(C(c2nnnn2-c2c(C)cccc2C)N2CCC(n3c(=O)[nH]c4ccccc43)CC2)cc1 (stereo unspecified)	inconclusive: 29.1 µM [cytotoxic, single point]	
c1ccc(CNc2c3c(nc4ccccc24)CCC3)cc1	inconclusive: 18.4 µM [cytotoxic, partial curve]	
O=C(Nc1ccc2c(c1)OCO2)c1cccn(Cc2ccccc2)c1=O		inactive: 5.74%
CCOC(=O)[C@]12Cc3cc(C)ccc3[C@H]1N(CCC(=O)OC)C(=O)c1ccccc12	active: 13 µM	
C[C@]12CC[C@H](N)CC1=CCC1C2CC[C@@]2(C)C1CC[C@@H]2O (stereo partly specified)		inactive: -15.8%
O=c1[nH]c2ccccc2n1C1CCN(C(c2nnnn2-c2ccc3c(c2)OCCO3)C2CC2)CC1 (stereo unspecified)	inconclusive: 29.1 µM [cytotoxic, single point]	
O=C(Nc1ccc2c(c1)OCO2)c1cn(Cc2ccc(F)cc2)nn1	inconclusive: 29.1 µM [cytotoxic, single point]	
C[n+]1c(-c2ccccc2)cc(-c2ccc(Cl)cc2)cc1-c1ccccc1	inconclusive: 18.4 µM [cytotoxic, single point]	
C=C1C(C)C2C(Cc3ccccc3)NC(=O)C23OC(=O)/C=C/C(O)CCCC(C)C/C=C/C3C1O (stereo unspecified)	inconclusive: 3.26 µM [cytotoxic, full curve, poor fit]	
O=C(CSC1c2ccccc2-c2ccccc21)N/N=C/c1ccccc1O	inconclusive: 18.4 µM [cytotoxic, single point]	
CCC(C)NC(=O)CCC(=O)OC1O[C@H]2OC3(C)CC[C@H]4[C@H](C)CCC(C1C)C24OO3 (stereo partly specified)	active: 5.17 µM	
CCOC(=O)[C@]12Cc3cc(Cl)ccc3[C@H]1N(C1CCCCC1)C(=O)c1ccccc12	active: 1.64 µM	
C[C@]12CC[C@H](O)C[C@H]1CC[C@@H]1[C@@H]2C[C@@H](O)[C@]2(C)[C@@H](C3=CC(=O)OC3)CC[C@]12O	active: 1.3 µM	
CC/C(=C\C=C\[C@@H]1C=C[C@@H]2CCC[C@H]2[C@@H]1C(=O)c1ccc[nH]1)[C@@H]1O[C@@H]([C@@H](C)C(=O)O)CC[C@@H]1C	inconclusive: 18.4 µM [cytotoxic, single point]	
O=Cc1cn(Cc2cccc(F)c2)c2ccccc12	inconclusive: 0.517 µM [cytotoxic, partial curve, poor fit]	
N#Cc1c(Cl)nc(Cl)c2c1CCN(Cc1ccccc1)C2		inconclusive: -2.32%
C=CCN1C(=O)NC(=O)/C(=C/c2ccc(OC)c(COc3ccc(NC(C)=O)cc3)c2)C1=O	inconclusive: 11.6 µM [cytotoxic, single point]	
CC1=CC(O)C(O)C2(C)C1CC1OC(=O)C(O)C3C(C)C(O)C4(O)OCC13C42 (stereo unspecified)	inconclusive: 29.1 µM [cytotoxic, single point]	
Cc1ccc(O)c(C(=O)c2cc(C(=O)NCCC(C)C)c(=O)n(CCC(C)C)c2)c1		inactive: -22.1%
CCN1CCN(c2cc(N3CCCC3)c([N+](=O)[O-])cc2F)CC1		inactive: -1.26%
